# Paper PMC7819943, “Rice protein-binding microarrays: a tool to detect cis-acting elements near promoter regions in rice”
# Amino acid sequences for entries named in this document (tags omitted).
# UniProt Q0JBA9, entry or part of it: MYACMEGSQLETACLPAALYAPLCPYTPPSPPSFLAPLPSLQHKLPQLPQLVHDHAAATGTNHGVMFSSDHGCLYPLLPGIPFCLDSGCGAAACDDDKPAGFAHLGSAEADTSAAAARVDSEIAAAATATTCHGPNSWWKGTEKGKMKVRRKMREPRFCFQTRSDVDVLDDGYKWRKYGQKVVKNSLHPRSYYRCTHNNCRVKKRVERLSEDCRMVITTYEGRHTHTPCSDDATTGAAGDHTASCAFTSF
# The list shows a part of the results.
# Molecular target: OsWRKY34 (Oryza sativa, UniProt Q0JBA9 1-250)
# Experiment: protein-binding microarray (RPBM); PBS, 2% BSA, 51.3 ng/ul salmon testes DNA, 50 uM zinc acetate, 200 nM TF, 25 C, 1 h; high values mean tight binding
# Details: protein: recombinant; tags: N-terminal polyhistidine and DsRed monomer fusion (pET32a); label: CyDye5-dUTP incorporated in the synthesized complementary strand; 3' TTTTT single-stranded linker to array surface; dsDNA, one strand shown
# How it was run: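 Transcription factors, each fused N-terminally to a polyhistidine tag and DsRed, were expressed in E. coli BL21-CodonPlus and purified on Ni–NTA. A custom Agilent array was made double-stranded by primer extension with Cy5-dUTP and blocked with 2% BSA. It was incubated with 200 nM protein in PBS, 2% BSA, salmon testes DNA and 50 µM zinc acetate at 25 °C for 1 h, then washed. The binding signal is per-feature fluorescence intensity (arbitrary units) read on an Axon 4000B scanner.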
row,Sequence,binding signal
1,CCACGACAACTCGCACCACACACCACCACCATCAAACTCCCGGAGTCACCTAGTGCAG,8600 fluorescence intensity (a.u.)
2,GCTGGATAAATTCTTTTGGCTTGTCATGGCCGGCTCATTTCGGAGTCACCTAGTGCAG,10600 fluorescence intensity (a.u.)
3,CTAGGCTCCTAGCATACTTTCTGGTACTATTGGACACTCACGGAGTCACCTAGTGCAG,8440 fluorescence intensity (a.u.)
4,TCAGGTCAACCGTAATCCTCATCACGGCATCAGTGCATCACGGAGTCACCTAGTGCAG,8970 fluorescence intensity (a.u.)
5,TACTTGCTCTGGTTAACTGCCACATGTTTTGTTCTATAAACGGAGTCACCTAGTGCAG,12700 fluorescence intensity (a.u.)
6,CTAACTTTTCCATTATGTTAAAACTTTCTTACACACTAACCGGAGTCACCTAGTGCAG,8670 fluorescence intensity (a.u.)
7,GCTCCTCCTCGCCGTCCTGCTCCTGACATTGCTCGCCGCGCGGAGTCACCTAGTGCAG,11300 fluorescence intensity (a.u.)
8,GGGGCTGTCAGAATCGTAAACCCTGGCTGTGGCAATGGCACGGAGTCACCTAGTGCAG,8860 fluorescence intensity (a.u.)
9,CGATCACGCTGCCTCCAGCCCTCTACTGGTACATCCACGCCGGAGTCACCTAGTGCAG,8770 fluorescence intensity (a.u.)
10,TGTGTGTGCGCCTCCGCGAGACCAGACACCAACCTCTCTCCGGAGTCACCTAGTGCAG,8100 fluorescence intensity (a.u.)
11,TTATCCGGTTAGTTCCGGCGTTCTCATCTCAATCCCATATCGGAGTCACCTAGTGCAG,9470 fluorescence intensity (a.u.)
12,ATGTGCTGTTGTGTGTACTTTATTGGTTAGTTCTATAATACGGAGTCACCTAGTGCAG,12500 fluorescence intensity (a.u.)
13,CGCGGCCATCGCAGTCGCCCAGTCATTGTCCCACCGCCTCCGGAGTCACCTAGTGCAG,9980 fluorescence intensity (a.u.)
14,CTCTCGAGCCTCCACGTCACATCGCCGGCGCCGGCTCATGCGGAGTCACCTAGTGCAG,9490 fluorescence intensity (a.u.)
15,TCCAAACTATTTATCCAATTGTCATTCTAATTATATCGTTCGGAGTCACCTAGTGCAG,9470 fluorescence intensity (a.u.)
16,GCAGTTCTTTCGATTCTACTTGGCGACGACATCCATGTGTCGGAGTCACCTAGTGCAG,10600 fluorescence intensity (a.u.)
17,ACCACTTGGGCCGCAGTGACGCTGCTCGTACATGTCCCGACGGAGTCACCTAGTGCAG,8080 fluorescence intensity (a.u.)
18,TTGTGAGTGTGTATGTGTTTATGGTGTGTAATTTTTTTTACGGAGTCACCTAGTGCAG,9320 fluorescence intensity (a.u.)
19,GCAATTCTGTTTGTACGAGGTATAATGTCCCTTTTGCTTGCGGAGTCACCTAGTGCAG,10600 fluorescence intensity (a.u.)
20,ATGCACTTCCTGTCACGGTCCGGCCCATCCTAGCTGCCGGCGGAGTCACCTAGTGCAG,10000 fluorescence intensity (a.u.)
21,TGATCTATTCTACTGATTTTTTTTTCATAGTAAATTTTTTCGGAGTCACCTAGTGCAG,8590 fluorescence intensity (a.u.)
22,GCGGCATCTCCAATCCCATCCATTCTAGTGGTCGATCTAGCGGAGTCACCTAGTGCAG,8780 fluorescence intensity (a.u.)
23,GAATGTTTTTCTGGGATGCTGTGTACCGTGTTGTTCGCAACGGAGTCACCTAGTGCAG,9870 fluorescence intensity (a.u.)
24,ACTACTATATGCTTTGAATAACGTGGGGATTGATCTGGTACGGAGTCACCTAGTGCAG,10400 fluorescence intensity (a.u.)
25,GTAATTTGTTTTGTTATTAGTCTACGTTTAATATTTCAAACGGAGTCACCTAGTGCAG,8420 fluorescence intensity (a.u.)
26,TTCAATGTTTTCAGATGTGTGTTTTTTCTAGTTTTCTTTCCGGAGTCACCTAGTGCAG,8690 fluorescence intensity (a.u.)
27,TTCGTATGTTTTCCTATTATTGTATTCTTCTCTATTTCCACGGAGTCACCTAGTGCAG,10800 fluorescence intensity (a.u.)

# Random excerpt: four records from the list, in no set order.
row,Sequence,binding signal
3,CTAGGCTCCTAGCATACTTTCTGGTACTATTGGACACTCACGGAGTCACCTAGTGCAG,8440 fluorescence intensity (a.u.)
10,TGTGTGTGCGCCTCCGCGAGACCAGACACCAACCTCTCTCCGGAGTCACCTAGTGCAG,8100 fluorescence intensity (a.u.)
5,TACTTGCTCTGGTTAACTGCCACATGTTTTGTTCTATAAACGGAGTCACCTAGTGCAG,12700 fluorescence intensity (a.u.)
11,TTATCCGGTTAGTTCCGGCGTTCTCATCTCAATCCCATATCGGAGTCACCTAGTGCAG,9470 fluorescence intensity (a.u.)

# (further entries)

row,Sequence,binding signal
1,GTGGGCCCCGCTTCGCCCGCCCGTGCCAGCCAGGATGGGACGGAGTCACCTAGTGCAG,8680 fluorescence intensity (a.u.)
2,TTTTCTCCTTGGCCTTTCGTGTGCCTGGCGCGCTCAGTTTCGGAGTCACCTAGTGCAG,8440 fluorescence intensity (a.u.)
3,TTGGCCTCTGTTATATTTTCAGTCTCTTCAGAATATTTTTCGGAGTCACCTAGTGCAG,8900 fluorescence intensity (a.u.)
4,GACTTCAATACTCAAGAGTACTAGTACTCGTGTTCTTTTTCGGAGTCACCTAGTGCAG,8280 fluorescence intensity (a.u.)
5,GTTGTTTTCTTCCACGCGCTCTGCAACGCCACCGCTCCCCCGGAGTCACCTAGTGCAG,9540 fluorescence intensity (a.u.)
6,TTACAATAACCATATAGCTTCATTTTCCTCTCGAGGCATGCGGAGTCACCTAGTGCAG,8120 fluorescence intensity (a.u.)
7,AACATTTATTTCCATATCTTCATATATGGTTCCATATGAACGGAGTCACCTAGTGCAG,8400 fluorescence intensity (a.u.)
8,TAAATTATTTTTGGTTGCTTGTTTATTTTTTCACGCTTATCGGAGTCACCTAGTGCAG,8680 fluorescence intensity (a.u.)
9,AAAATTATTCATACGTTTGTTTAGCCACCAAGATTTGAATCGGAGTCACCTAGTGCAG,8040 fluorescence intensity (a.u.)
10,ATGTAGACACTTATAAATCACATGTACACTTATCCTTATACGGAGTCACCTAGTGCAG,8380 fluorescence intensity (a.u.)
11,CAAGTTTCACACTTTGCCGTTTTCCGACCATTATTGCCGTCGGAGTCACCTAGTGCAG,8700 fluorescence intensity (a.u.)
12,GCTGGAGGTTCTGGGTCACTGCTTTGCTGCTGTTTGATGCCGGAGTCACCTAGTGCAG,8220 fluorescence intensity (a.u.)
13,ATTCTCAGCGTCTCACACCTCCTGCGTTTCGTCTTTAATCCGGAGTCACCTAGTGCAG,15600 fluorescence intensity (a.u.)
14,TTATTTACTTGCCACATCATTTTTCATCCTAGGTGGCAGCCGGAGTCACCTAGTGCAG,8260 fluorescence intensity (a.u.)
15,GTAACTGTACATTTTATATAAGCATCTGCTATACCATGCACGGAGTCACCTAGTGCAG,8220 fluorescence intensity (a.u.)
16,GGTGGGGTTGGCAGCTTTCGTGCTTGGTCAACCGGGCATGCGGAGTCACCTAGTGCAG,8520 fluorescence intensity (a.u.)
17,GGTGGTCGAAATATTCGATTTTGTGGTTTAGGGTAATGGACGGAGTCACCTAGTGCAG,10200 fluorescence intensity (a.u.)
18,TGTCGGTGTCGGTGGGCGGGGATTCGCGGTAGTGGTGGAACGGAGTCACCTAGTGCAG,19700 fluorescence intensity (a.u.)
19,CGCATGTGTAGTGGTGTGTGTGTTTATGCGTCTGCCGTGTCGGAGTCACCTAGTGCAG,9550 fluorescence intensity (a.u.)
20,AGTCACGTCCACTCATCCCTGTAAACATATACACACACCTCGGAGTCACCTAGTGCAG,9090 fluorescence intensity (a.u.)
21,TATCGTGCTTCCATGTGCACAGATCGATCAAACTCGCATGCGGAGTCACCTAGTGCAG,9270 fluorescence intensity (a.u.)
22,AATCAACACAACACTACACTACACCCACCATCTCGGCGTCCGGAGTCACCTAGTGCAG,8870 fluorescence intensity (a.u.)
23,TTTTCAGTTTAATAGCCAATTTTTTTTTTATATTCAATACCGGAGTCACCTAGTGCAG,8640 fluorescence intensity (a.u.)
24,GATCATTTTTTCATCATTTTGCATCCCACTTTAAAAATAACGGAGTCACCTAGTGCAG,12300 fluorescence intensity (a.u.)
25,CATCCGCGACAGGCTGCCTGCACGACCGACCGTTATCATCCGGAGTCACCTAGTGCAG,8390 fluorescence intensity (a.u.)
26,CCCCAACACTTGTCCAGCCACCACCACTTGTTCTTTCCTTCGGAGTCACCTAGTGCAG,12200 fluorescence intensity (a.u.)
27,TATTTTCCAGTTTAGCTTCAAAGCTCCATTTACTGCATCTCGGAGTCACCTAGTGCAG,8180 fluorescence intensity (a.u.)
